These are yes or no findings as the source states them, for the method shown. Binding seen in cells or lysates may run through a third protein. A result given as binding can be weak or reduced; the word gives no strength. Sequences can lack the tags named with a protein.
Target: FLAG-OCLN-ΔN
Assay: co-IP; 293T cells co-expressing FLAG-OCLN (or OCLN-ΔN / OCLN-ΔC) and HA-PLIN2/BTN1a1/XOR; lysis in 20 mM HEPES, 150 mM NaCl, 1% NP40; FLAG magnetic beads overnight at 4°C, 4 washes; western blot with anti-HA

B1: HA-BTN1a1 (protein, UniProt Q62556 27-524)
chain: AAPFDVTAPQEPVLALVGSDAELTCGFSPNASSEYMELLWFRQTRSTAVLLYRDGQEQEGQQMTEYRGRATLATAGLLDGRATLLIRDVRVSDQGEYRCLFKDNDDFEEAAVYLKVAAVGSDPQISMTVQENGEMELECTSSGWYPEPQVQWRTGNREMLPSTSESKKHNEEGLFTVAVSMMIRDSSIKNMSCCIQNILLGQGKEVEISLPAPFVPRLTPWIVAVAIILLALGFLTIGSIFFTWKLYKERSSLRKKEFGSKERLLEELRCKKTVLHEVDVTLDPDTAHPHLFLYEDSKSVRLEDSRQILPDRPERFDSWPCVLGRETFTSGRHYWEVEVGDRTDWAIGVCRENVVKKGFDPMTPDNGFWAVELYGNGYWALTPLRTSLRLAGPPRRVGVFLDYDAGDISFYNMSNGSLIYTFPSISFSGPLRPFFCLWSCGKKPLTICSTANGPEKVTVIANVQDDIPLSPLGEGCTSGDKDTLHSKLIPFSPSQAAP
binding: binds

— PMC8797263
